Test results: PubChem BioAssay AID248 (DTP/NCI, 2004)
The list is a part of this screen's results and no random one: it is rich in T/C values a quarter to a half above the control, in often repeated tests (any T/C) and in doses without a T/C. Further doses and runs are listed elsewhere. T/C gives the treated animals as a percentage of the vehicle group. Some entries give survivors of the animals treated and no T/C: the source holds a T/C of zero for them, seemingly a mark for toxic or unscored doses. Some survivor counts are full or nearly so, which does not show that the dose was tolerated: survival well below the control is almost never listed, so the zero probably covers shortened survival too. Survivors were counted at the toxicity check, usually on the fifth day, unless a day is given; later deaths do not show. Schedules are NCI's codes, taken here to give the interval after Q, in days (D) or hours (H), and the number of doses after X. Where survival is the endpoint, the PubChem record calls one and a half times the control and up active, and a quarter to a half above the control has no call in these data; cut-offs in other NCI protocols can differ. Some doses were run more than once; their values stand side by side, smallest first. Some schedules carry Z or #; the key to these is not given.

Test system: L1210 leukemia ip in BDF1 mice, survival T/C
Experiment: NCI In Vivo Anticancer Drug Screen. Data for tumor model L1210 Leukemia (intraperitoneal) in B6D2F1 (BDF1) mice
Conditions: T/C endpoint: mean survival time, higher T/C = longer survival

SMILES: O=NN(CCCl)C(=O)NC1CCCCC1
- T/C (dose: 0.25 mg/kg/injection, schedule: Q03HX024 (oral), vehicle: saline): 138 % of control
- T/C (dose: 2.0 mg/kg/injection, schedule: Q01DX Z (ip), vehicle: carboxymethylcellulose (CMC)): 133 % of control
- T/C (dose: 3.12 mg/kg/injection, schedule: Q01DX009 (ip), vehicle: carboxymethylcellulose (CMC)): 125 % of control
- T/C (dose: 3.12 mg/kg/injection, schedule: Q01DX017 (ip), vehicle: carboxymethylcellulose (CMC)): 130 % of control
- T/C (dose: 3.12 mg/kg/injection, schedule: Q03HX008 (ip), vehicle: carboxymethylcellulose (CMC)): 127 % of control
- T/C (dose: 4.0 mg/kg/injection, schedule: Q01DX005 (oral), vehicle: saline): 138 % of control
- T/C (dose: 4.0 mg/kg/injection, schedule: Q01DX009 (ip), vehicle: saline with Tween-80): 127 % of control
- T/C (dose: 4.0 mg/kg/injection, schedule: Q01DX Z (ip), vehicle: carboxymethylcellulose (CMC)): 141 % of control
- survivor count (dose: 4.0 mg/kg/injection, schedule: Q03HX008 (ip), vehicle: saline): 8 of 10
- T/C (dose: 4.2 mg/kg/injection, schedule: Q01DX015 (ip), vehicle: carboxymethylcellulose (CMC)): 134 % of control
- T/C (dose: 6.0 mg/kg/injection, schedule: Q01DX001 (ip), vehicle: carboxymethylcellulose (CMC)): 110, 113, 114, 115, 118 % of control
- T/C (dose: 6.0 mg/kg/injection, schedule: Q01DX003 (ip), vehicle: carboxymethylcellulose (CMC)): 127 % of control
- T/C (dose: 6.0 mg/kg/injection, schedule: Q01DX004 (ip), vehicle: carboxymethylcellulose (CMC)): 133 % of control
- T/C (dose: 6.0 mg/kg/injection, schedule: Q01DX005 (ip), vehicle: carboxymethylcellulose (CMC)): 145 % of control
- T/C (dose: 6.0 mg/kg/injection, schedule: Q02DX004 (ip), vehicle: carboxymethylcellulose (CMC)): 145 % of control
- T/C (dose: 6.0 mg/kg/injection, schedule: Q02DX008 (ip), vehicle: carboxymethylcellulose (CMC)): 126 % of control
- T/C (dose: 6.2 mg/kg/injection, schedule: Q## X015 (ip), vehicle: carboxymethylcellulose (CMC)): 137 % of control
- T/C (dose: 6.25 mg/kg/injection, schedule: Q01DX001 (ip), vehicle: Klucel (hydroxypropylcellulose) (HPC)): 132 % of control
- T/C (dose: 6.25 mg/kg/injection, schedule: Q04DX003 (ip), vehicle: carboxymethylcellulose (CMC)): 128 % of control
- T/C (dose: 6.25 mg/kg/injection, schedule: Q04DX005 (ip), vehicle: carboxymethylcellulose (CMC)): 145 % of control
- T/C (dose: 7.5 mg/kg/injection, schedule: Q01DX001 (iv), vehicle: clinical formulation): 134 % of control
- T/C (dose: 8.0 mg/kg/injection, schedule: Q01DX005 (oral), vehicle: saline): 139 % of control
- T/C (dose: 8.0 mg/kg/injection, schedule: Q01DX009 (ip), vehicle: saline with Tween-80): 147 % of control
- T/C (dose: 8.0 mg/kg/injection, schedule: Q01DX009 (oral), vehicle: saline): 143 % of control
- T/C (dose: 8.0 mg/kg/injection, schedule: Q01DX Z (ip), vehicle: carboxymethylcellulose (CMC)): 146 % of control
- T/C (dose: 8.2 mg/kg/injection, schedule: Q01DX009 (ip), vehicle: Klucel (hydroxypropylcellulose) (HPC)): 136 % of control
- T/C (dose: 9.0 mg/kg/injection, schedule: Q01DX001 (ip), vehicle: carboxymethylcellulose (CMC)): 132, 151, 152, 153, 208 % of control
- T/C (dose: 9.0 mg/kg/injection, schedule: Q## X004 (ip), vehicle: carboxymethylcellulose (CMC)): 132 % of control
- T/C (dose: 10.0 mg/kg/injection, schedule: Q01DX001 (ip), vehicle: saline): 141 % of control
- T/C (dose: 10.0 mg/kg/injection, schedule: Q01DX001 (iv), vehicle: saline): 145 % of control
- T/C (dose: 10.0 mg/kg/injection, schedule: Q01DX001 (oral), vehicle: saline): 125 % of control
- T/C (dose: 10.0 mg/kg/injection, schedule: Q## X001 (ip), vehicle: carboxymethylcellulose (CMC)): 143 % of control
- T/C (dose: 10.0 mg/kg/injection, schedule: Q## X032 (ip), vehicle: carboxymethylcellulose (CMC)): 135 % of control
- T/C (dose: 11.0 mg/kg/injection, schedule: Q## X032 (ip), vehicle: carboxymethylcellulose (CMC)): 131 % of control
- T/C (dose: 11.2 mg/kg/injection, schedule: Q## X032 (ip), vehicle: carboxymethylcellulose (CMC)): 129 % of control
- T/C (dose: 12.0 mg/kg/injection, schedule: Q01DX001 (ip), vehicle: carboxymethylcellulose (CMC)): 157, 158, 166, 237, 282 % of control
- T/C (dose: 12.0 mg/kg/injection, schedule: Q## X032 (ip), vehicle: carboxymethylcellulose (CMC)): 145 % of control
- T/C (dose: 12.5 mg/kg/injection, schedule: Q01DX001 (ip), vehicle: Klucel (hydroxypropylcellulose) (HPC)): 140 % of control
- T/C (dose: 12.5 mg/kg/injection, schedule: Q01DX001 (ip), vehicle: carboxymethylcellulose (CMC), evaluated on day 45): 153, 179, 190, 203 % of control
- T/C (dose: 12.5 mg/kg/injection, schedule: Q01DX001 (ip), vehicle: carboxymethylcellulose (CMC), run until all animals had died): 138, 148, 163 % of control
- T/C (dose: 12.5 mg/kg/injection, schedule: Q01DX001 (oral), vehicle: carboxymethylcellulose (CMC)): 138 % of control
- T/C (dose: 15.0 mg/kg/injection, schedule: Q01DX001 (iv), vehicle: saline): 134 % of control
- T/C (dose: 19.4 mg/kg/injection, schedule: Q01DX001 (ip), vehicle: carboxymethylcellulose (CMC)): 145 % of control
- T/C (dose: 20.0 mg/kg/injection, schedule: Q01DX001 (ip), vehicle: saline): 138 % of control
- T/C (dose: 22.0 mg/kg/injection, schedule: Q01DX001 (ip), vehicle: other): 142 % of control
- survivor count (dose: 22.0 mg/kg/injection, schedule: Q01DX001 (iv), vehicle: clinical formulation): 3 of 6
- T/C (dose: 25.0 mg/kg/injection, schedule: Q01DX001 (ip), vehicle: Klucel (hydroxypropylcellulose) (HPC), evaluated on day 30): 171 and 226 % of control
- T/C (dose: 25.0 mg/kg/injection, schedule: Q01DX001 (ip), vehicle: Klucel (hydroxypropylcellulose) (HPC), evaluated on day 60): 550 and 595 % of control
- T/C (dose: 25.0 mg/kg/injection, schedule: Q01DX001 (ip), vehicle: carboxymethylcellulose (CMC), evaluated on day 45): 446, 459, 494 % of control
- T/C (dose: 25.0 mg/kg/injection, schedule: Q01DX001 (ip), vehicle: carboxymethylcellulose (CMC), run until all animals had died): 194, 202, 204, 241, 301, 509 % of control
- T/C (dose: 25.0 mg/kg/injection, schedule: Q01DX Z (ip), vehicle: carboxymethylcellulose (CMC)): 149 % of control
- T/C (dose: 27.0 mg/kg/injection, schedule: Q## X032 (ip), vehicle: carboxymethylcellulose (CMC)): 149 % of control
- survivor count (dose: 32.0 mg/kg/injection, schedule: Q01DX009 (oral), vehicle: saline): 10 of 10
- T/C (dose: 33.0 mg/kg/injection, schedule: Q01DX001 (ip), vehicle: carboxymethylcellulose (CMC), evaluated on day 46): 519 % of control
- T/C (dose: 33.0 mg/kg/injection, schedule: Q01DX001 (ip), vehicle: carboxymethylcellulose (CMC), evaluated on day 60): 605, 645, 859 % of control
- survivor count (dose: 33.0 mg/kg/injection, schedule: Q01DX001 (iv), vehicle: clinical formulation): 3 of 6
